Data reported in PMC6534668.
Read-outs that look alike come from different tables or passages of the source. Results are given in words; binding and its absence hold for the method and conditions named. In cells and extracts the contact can be indirect. Here binding means that the protein was enriched with, or labelled near, the bait; the list need not be complete. A no says only that the protein was not detected with the bait.

Chains of the proteins cited; added tags and fusions are not shown.
UniProt P24610: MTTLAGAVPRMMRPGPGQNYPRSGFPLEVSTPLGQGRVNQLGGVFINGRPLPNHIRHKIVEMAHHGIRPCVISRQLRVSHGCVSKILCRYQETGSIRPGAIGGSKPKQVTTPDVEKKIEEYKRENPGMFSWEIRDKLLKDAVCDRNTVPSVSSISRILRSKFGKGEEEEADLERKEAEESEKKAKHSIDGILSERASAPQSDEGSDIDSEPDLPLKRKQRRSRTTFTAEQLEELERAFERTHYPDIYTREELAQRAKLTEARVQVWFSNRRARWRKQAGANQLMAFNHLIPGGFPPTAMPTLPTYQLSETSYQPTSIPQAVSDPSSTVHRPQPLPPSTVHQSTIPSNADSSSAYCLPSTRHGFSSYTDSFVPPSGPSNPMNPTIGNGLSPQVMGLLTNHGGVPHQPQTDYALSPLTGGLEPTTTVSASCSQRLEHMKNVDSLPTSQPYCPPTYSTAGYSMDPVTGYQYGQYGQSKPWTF
UniProt Q9CWW7: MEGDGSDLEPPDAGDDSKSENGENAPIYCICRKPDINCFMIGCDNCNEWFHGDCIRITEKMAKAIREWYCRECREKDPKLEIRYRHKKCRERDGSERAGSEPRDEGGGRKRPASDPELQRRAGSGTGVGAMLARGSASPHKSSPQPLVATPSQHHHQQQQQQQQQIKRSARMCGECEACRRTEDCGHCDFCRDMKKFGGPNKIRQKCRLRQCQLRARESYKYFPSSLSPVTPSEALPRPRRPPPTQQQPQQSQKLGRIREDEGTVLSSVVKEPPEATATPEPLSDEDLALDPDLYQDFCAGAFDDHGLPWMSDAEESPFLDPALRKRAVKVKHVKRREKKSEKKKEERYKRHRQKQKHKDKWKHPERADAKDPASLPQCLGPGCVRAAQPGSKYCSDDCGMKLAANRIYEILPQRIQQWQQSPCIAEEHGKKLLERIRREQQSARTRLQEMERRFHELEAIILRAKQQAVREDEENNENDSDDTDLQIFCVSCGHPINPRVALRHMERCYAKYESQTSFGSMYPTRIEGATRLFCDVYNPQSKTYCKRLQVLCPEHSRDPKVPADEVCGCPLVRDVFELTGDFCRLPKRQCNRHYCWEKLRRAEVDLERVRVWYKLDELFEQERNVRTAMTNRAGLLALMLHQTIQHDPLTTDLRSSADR
UniProt Q99L02: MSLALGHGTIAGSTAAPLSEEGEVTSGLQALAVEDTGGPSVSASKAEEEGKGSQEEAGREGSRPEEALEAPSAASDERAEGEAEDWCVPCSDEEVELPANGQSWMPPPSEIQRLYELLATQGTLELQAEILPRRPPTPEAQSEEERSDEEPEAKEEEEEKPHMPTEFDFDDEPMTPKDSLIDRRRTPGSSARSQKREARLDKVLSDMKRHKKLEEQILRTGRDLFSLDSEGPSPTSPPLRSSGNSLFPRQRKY

Columns and labels:
[1] = target: PAX3HaFlag (UniProt P24610); experiment: affinity purification with mass spectrometry; tandem affinity purification of PAX3HaFlag (anti-FLAG M2 then anti-HA magnetic beads, peptide elution) from Benzonase-treated nuclear extracts of 1-day induced EBs; washes with 100 and 200 mM NaCl, 0.1% NP-40; control: IP from the untagged Pax3 line; two purifications
[2] = target: PAX3HaFlag (UniProt P24610); experiment: as above; remark: listed apart in the source

| Molecule | binding [1] | binding [2] |
| --- | --- | --- |
| CXXC1 (from UniProt Q9CWW7 1-660) | no binding | – |
| LIM-domain binding protein 1 (LDB1) (protein, UniProt P70662 1-411) MSVGCACPGCSSKSFKLYSPKEPPNGNAFPPFHPGTMLDRDVGPTPMYPPTYLEPGIGRHTPYGNQTDYRIFELNKRLQNWTEECDNLWWDAFTTEFFEDDAMLTITFCLEDGPKRYTIGRTLIPRYFRSIFEGGATELYYVLKHPKEAFHSNFVSLDCDQGSMVTQHGKPMFTQVCVEGRLYLEFMFDDMMRIKTWHFSIRQHRELIPRSILAMHAQDPQMLDQLSKNITRCGLSNSTLNYLRLCVILEPMQELMSRHKTYSLSPRDCLKTCLFQKWQRMVAPPAEPARQQPSKRRKRKMSGGSTMSSGGGNTNNSNSKKKSPASTFALSSQVPDVMVVGEPTLMGGEFGDEDERLITRLENTQFDAANGIDDEDSFNNSPALGANSPWNSKPPSSQESKSENPTSQASQ | – | binds |

The remaining lines, values ahead:

| binding [1] | binding [2] | Molecule |
| --- | --- | --- |
| no binding | – | PAGR1A (from UniProt Q99L02 1-253) |
| – | no binding | CTCF (protein, UniProt Q61164 1-736) MEGEAVEAIVEESETFIKGKERKTYQRRREGGQEEDACHLPQNQTDGGEVVQDVNSSVQMVMMEQLDPTLLQMKTEVMEGTVAPEAEAAVDDTQIITLQVVNMEEQPINIGELQLVQVPVPVTVPVATTSVEELQGAYENEVSKEGLAESEPMICHTLPLPEGFQVVKVGANGEVETLEQGELPPQEDSSWQKDPDYQPPAKKTKKTKKSKLRYTEEGKDVDVSVYDFEEEQQEGLLSEVNAEKVVGNMKPPKPTKIKKKGVKKTFQCELCSYTCPRRSNLDRHMKSHTDERPHKCHLCGRAFRTVTLLRNHLNTHTGTRPHKCPDCDMAFVTSGELVRHRRYKHTHEKPFKCSMCDYASVEVSKLKRHIRSHTGERPFQCSLCSYASRDTYKLKRHMRTHSGEKPYECYICHARFTQSGTMKMHILQKHTENVAKFHCPHCDTVIARKSDLGVHLRKQHSYIEQGKKCRYCDAVFHERYALIQHQKSHKNEKRFKCDQCDYACRQERHMIMHKRTHTGEKPYACSHCDKTFRQKQLLDMHFKRYHDPNFVPAAFVCSKCGKTFTRRNTMARHADNCAGPDGVEGENGGETKKSKRGRKRKMRSKKEDSSDSEENAEPDLDDNEEEEEPAVEIEPEPEPQPQPPPPPQPVAPAPPPAKKRRGRPPGRTNQPKQNQPTAIIQVEDQNTGAIENIIVEVKKEPDAEPAEGEEEEAQAATTDAPNGDLTPEMILSMMDR |
